These are yes or no findings as the source states them, for the method shown. In cells and extracts the contact can be indirect. Some entries that bind do so weakly or less than the wild type.
Assays:
[1] = target: 3×Flag-USP7 (ubiquitin-specific peptidase 7) (UniProt Q93009); assay: co-IP; HEK-293T cells, 48 h after transient transfection of overexpression constructs; Flag or HA antibody for co-IP; Western blotting
[2] = target: HMGA1 overexpression construct (co-IP with USP7) (UniProt P17096); assay: as above

The chains behind the UniProt entries cited, without tags or fusion partners.
UniProt Q93009: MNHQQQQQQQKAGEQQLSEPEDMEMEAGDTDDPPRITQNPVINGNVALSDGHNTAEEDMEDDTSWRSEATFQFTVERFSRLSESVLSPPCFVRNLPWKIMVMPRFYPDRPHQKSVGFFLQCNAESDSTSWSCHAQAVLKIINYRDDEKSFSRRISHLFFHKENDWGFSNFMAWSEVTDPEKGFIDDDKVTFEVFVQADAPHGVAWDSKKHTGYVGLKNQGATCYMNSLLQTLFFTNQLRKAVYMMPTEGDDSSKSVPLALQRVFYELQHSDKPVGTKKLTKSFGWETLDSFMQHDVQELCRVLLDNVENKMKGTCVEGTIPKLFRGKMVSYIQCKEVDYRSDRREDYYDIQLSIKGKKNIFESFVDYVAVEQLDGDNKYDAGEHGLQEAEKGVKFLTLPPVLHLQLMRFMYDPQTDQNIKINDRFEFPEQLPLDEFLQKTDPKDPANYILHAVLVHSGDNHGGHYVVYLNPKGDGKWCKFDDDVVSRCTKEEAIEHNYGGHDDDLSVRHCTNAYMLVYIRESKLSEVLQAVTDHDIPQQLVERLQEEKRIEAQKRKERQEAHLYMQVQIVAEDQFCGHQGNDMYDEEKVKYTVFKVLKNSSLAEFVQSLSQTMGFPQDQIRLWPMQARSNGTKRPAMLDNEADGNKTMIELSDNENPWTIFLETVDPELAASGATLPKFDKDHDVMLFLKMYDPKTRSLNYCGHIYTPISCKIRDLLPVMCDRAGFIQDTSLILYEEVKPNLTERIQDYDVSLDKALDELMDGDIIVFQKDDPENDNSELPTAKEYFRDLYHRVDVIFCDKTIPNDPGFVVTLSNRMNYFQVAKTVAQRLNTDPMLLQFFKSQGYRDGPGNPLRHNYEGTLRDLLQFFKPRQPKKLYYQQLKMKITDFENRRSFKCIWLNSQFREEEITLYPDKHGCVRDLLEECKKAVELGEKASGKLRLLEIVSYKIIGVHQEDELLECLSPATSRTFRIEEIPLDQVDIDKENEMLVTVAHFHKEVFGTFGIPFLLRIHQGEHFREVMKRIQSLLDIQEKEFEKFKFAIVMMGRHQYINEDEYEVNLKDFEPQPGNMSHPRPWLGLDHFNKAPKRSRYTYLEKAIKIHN
UniProt P17096: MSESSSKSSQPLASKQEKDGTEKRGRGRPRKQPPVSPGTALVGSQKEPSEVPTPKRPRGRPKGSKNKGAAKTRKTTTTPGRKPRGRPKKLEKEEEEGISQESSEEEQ
UniProt Q8N884: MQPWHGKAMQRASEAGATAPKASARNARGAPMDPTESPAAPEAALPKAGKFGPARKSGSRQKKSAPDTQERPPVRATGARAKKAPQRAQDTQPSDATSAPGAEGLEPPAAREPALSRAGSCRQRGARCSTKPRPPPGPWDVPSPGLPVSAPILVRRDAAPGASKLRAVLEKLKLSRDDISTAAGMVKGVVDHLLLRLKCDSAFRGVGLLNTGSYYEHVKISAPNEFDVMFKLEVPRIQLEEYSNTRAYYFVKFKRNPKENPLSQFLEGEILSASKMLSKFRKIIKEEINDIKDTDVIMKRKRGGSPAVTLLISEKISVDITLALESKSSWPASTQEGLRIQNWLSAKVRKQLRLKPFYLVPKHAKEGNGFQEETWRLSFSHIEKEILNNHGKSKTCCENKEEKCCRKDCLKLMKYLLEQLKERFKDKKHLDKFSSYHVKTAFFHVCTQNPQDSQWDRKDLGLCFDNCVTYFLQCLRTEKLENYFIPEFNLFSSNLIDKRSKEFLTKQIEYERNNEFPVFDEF

Row | binding [1] | binding [2] | Substance
1 | binds | – | cyclic GMP-AMP synthase (from UniProt Q8N884 1-522) (enzyme)
2 | – | binds | 3×Flag-USP7 (ubiquitin-specific peptidase 7) (from UniProt Q93009 1-1102) (enzyme)

— PMC8836657
